{"source": "patent US6437184B1", "about": "“Oxime compounds, their use, and intermediates for their production” (Sumitomo Chemical Company, Limited, priority 1997, dated 2002)", "format_in_all_cases": "in vivo", "key": {"Helicoverpa armigera": {"tested_on": "Helicoverpa armigera", "assay": "Insecticidal test against Helicoverpa armigera", "details": "100 ppm water dilution, cotton leaf fragment immersed 10 seconds; third-instar larvae; after 5 days", "method": "A cotton leaf fragment (diameter, 5 cm) was immersed for 10 seconds Lin a water dilution (100 ppm) of a test compound formulation obtained according to Formulation Example 1. This fragment was taken out from the dilution, air dried, and placed in a polyethylene cup having a diameter of 5.5 cm. One third-instar larva of Helicoverpa armigera was set free in each cup. Ten larvae were used for each treatment. After 5 days, the mortality of the larvae was determined."}, "Cydia pomonella": {"tested_on": "Cydia pomonella", "assay": "Insecticidal test against Cydia pomonella", "details": "100 ppm water dilution, 0.2 ml on surface of artificial diet; eggs just before hatching; after 7 days", "method": "A water dilution (100 ppm) of a test compound formulation obtained according to Formulation Example 1 was added dropwise at a volume of 0.2 ml and spread over the surface of an artificial diet having a weight of 3 g, which had been prepared in a 30 ml polyethylene cup. After air drying, placed in the cup was a piece of wax paper (about 2.5 cm square) having about 20 eggs which had been laid by Cydia pomonella and were just before hatching. Four pieces of such wax paper were used for each treatment. After 7 days, the mortality of the larvae was determined."}, "Musca domestica": {"tested_on": "Musca domestica", "assay": "Insecticidal test against Musca domestica", "details": "500 ppm water dilution, 0.7 ml on filter paper with sucrose; female adults; after 1 day", "method": "In the bottom of a polyethylene cup having a diameter of 5.5 cm was placed a piece of filter paper having the same size. A 200-fold water dilution (500 ppm) of a test compound formulation obtained according to Formulation Example 1 was added dropwise at a volume of 0.7 ml on the filter paper, and about 30 mg of sucrose as a diet was uniformly placed thereon. Ten female adults of houseflies (Musca domestica) were set free in the cup, and the cup was kept covered. After 1 day, the survival of the adults was determined to determine the mortality."}, "Plutella xylostella": {"tested_on": "Plutella xylostella", "assay": "Insecticidal test against Plutella xylostella", "details": "50 ppm water dilution sprayed over potted cabbages, 25 ml per pot; third-instar larvae; after 4 days", "method": "To a water dilution (50 ppm) of a test compound formulation obtained according to Formulation Example 1 was added a spreading agent (New RINOU available from Nihon Noyaku K.K.) at a dilution ratio of 3000-fold. The dilution was sprayed over potted cabbages at the four to five leaf stage at a volume of 25 ml per pot. After the treated plants were air dried, ten third-instar larvae of Plutella xylostella were set free on each pot. After 4 days, the mortality was determined."}, "Spodoptera litura": {"tested_on": "Spodoptera litura", "assay": "Insecticidal test against Spodoptera litura", "details": "500 ppm water dilution, 2 ml absorbed in 13 g artificial diet; fourth-instar larvae; after 6 days", "method": "A 200-fold water dilution (500 ppm) of a test compound formulation obtained according to Formulation Example 1 or 2 was absorbed at a volume of 2 ml in an artificial diet (Insecta LF available from Nihon Nosan K.K.) having a weight of 13 g, which had been prepared in a polyethylene cup having a diameter of 11 cm. Five fourth-instar larvae of Spodoptera litura were set free in the cup. After 6 days, the survival of the larvae was examined to determine the mortality."}}, "note": "Some results were stated once for a whole list of compounds, not compound by compound. At least one compound was matched to its structure with a doubt left."}
{"smiles": "CCON=Cc1cccc(OCCCOc2c(Cl)cc(OCC=C(Cl)Cl)cc2Cl)c1", "note": "[(303), 3-(3-(2,6-dichloro-4-(3,3-dichloro-2-propenyloxy)phenoxy)proyloxy)benzaldehyde O-ethyloxime]", "values": [{"measurement": "mortality", "setting": "Helicoverpa armigera", "value": "≥ 80", "unit": "%"}]}
{"smiles": "CON=C(C)c1ccc(OCCCOc2c(Cl)cc(OCC=C(Cl)Cl)cc2Cl)cc1", "note": "[(307), 4-(3-(2,6-dichloro-4-(3,3-dichloro-2-propenyloxy)phenoxy)propyloxy)acetophenone O-methyloxime]", "values": [{"measurement": "mortality", "setting": "Cydia pomonella", "value": "≥ 80", "unit": "%"}, {"measurement": "mortality", "setting": "Musca domestica", "value": "≥ 80", "unit": "%"}]}
{"smiles": "CON=C(C)c1ccc(OCCCCOc2c(Cl)cc(OCC=C(Cl)Cl)cc2Cl)cc1", "note": "[(309), 4-(4-(2,6-dichloro-4-(3,3-dichloro-2-propenyloxy)phenoxy)butyloxy)acetophenone O-methyloxime]", "values": [{"measurement": "mortality", "setting": "Musca domestica", "value": "≥ 80", "unit": "%"}]}
{"smiles": "CCC(=NO)c1ccc(OCCCOc2c(Cl)cc(OCC=C(Cl)Cl)cc2Cl)cc1", "note": "[(332), 4-(3-(2,6-dichloro-4-(3,3-dichloro-2-propenyloxy)phenoxy)propyloxy)propiophenone oxime]", "values": [{"measurement": "mortality", "setting": "Musca domestica", "value": "≥ 80", "unit": "%"}, {"measurement": "mortality", "setting": "Plutella xylostella", "value": "≥ 80", "unit": "%"}]}
{"smiles": "ClC(Cl)=CCON=Cc1ccc(COc2c(Cl)cc(OCC=C(Cl)Cl)cc2Cl)o1", "note": "[(481), 5-((2,6-dichloro-4-(3,3-dichloro-2-propenyloxy)phenoxy)methyl)-2-furfural O-(3,3-dichloro-2-propenyl)oxime]", "values": [{"measurement": "mortality", "setting": "Cydia pomonella", "value": "≥ 80", "unit": "%"}, {"measurement": "mortality", "setting": "Musca domestica", "value": "≥ 80", "unit": "%"}, {"measurement": "mortality", "setting": "Spodoptera litura", "value": "≥ 80", "unit": "%"}]}
